Experimental data: PubChem BioAssay AID1347075 (National Center for Advancing Translational Sciences (NCATS), 2019)
In all, about 400,000 compounds went through this assay and about 5,500 (1.4%) were called active. Inconclusive results, whose numbers are uncertain, are shown with a selection of clear calls. Calls follow the shape of the dose curve; as a rule, active = well fitted cell-killing curve with a large enough effect; inconclusive = small, poorly fitted or top-dose-only effect, or effect the other way; inactive = flat fitted curve, though single readings scatter. Potencies beside an inconclusive call are fits to weak or partial responses and may not hold up.

Experiment: qHTS assay for MDR1-selective chemotherapeutics: Primary screen using the parental adenocarcinoma cell KB-3-1; also: nearly all actives have a fitted effect of over 60% in size
Conditions: KB-3-1 viability, CellTiter-Glo ATP luminescence, 72 h; activity change, negative = cytotoxic: at 46.1 µM (top of the series)
Method in brief: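 KB-3-1 cells, DMEM (no phenol red) + 10% FBS; compound by pin transfer, 72 h, 37 °C. Readout: CellTiter-Glo luminescence after 10 min. Data normalized, curve-fitted.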
% is scaled to controls: 0 for no effect and ±100 for the full control effect; potency is read from the fitted curve at half-maximal effect.

Structure (SMILES)	Potency	activity change, negative = cytotoxic
CCOc1ccccc1NC(=O)C(OC(=O)c1ccc(CC)cc1)c1ccccc1 (stereo unspecified)	inconclusive: 32.6 µM [cytotoxic, single point]	–
CC(=O)/C(C#N)=C1\NC(=O)C(Cc2ccc(C)c(C)c2)S1 (stereo unspecified)	active: 14.6 µM	–
O=C(O)CC(C(=O)O)C(c1ccccc1)c1ccccc1 (stereo unspecified)	inconclusive: 13 µM [rising, partial curve, poor fit]	–
Cc1ccc(NC(=O)CC2Sc3ccccc3NC2=O)c(C)c1 (stereo unspecified)	active: 16.4 µM	–
Cc1nc(-c2ccc(C(=O)Nc3cccc(F)c3)cc2)cs1	inactive	–
Cc1csc(NC(=O)/C=C/c2ccco2)n1	inconclusive: 29.1 µM [cytotoxic, single point]	–
CCN(C(=O)c1cc(S(=O)(=O)N2CCCCC2)c[nH]1)c1ccc(OC)cc1	inactive	–
CCN1C(=O)/C(=C/c2cc(C)n(C)c2C)SC1=Nc1ccc(OC)cc1	inconclusive: 29.1 µM [cytotoxic, single point]	–
COc1ccc(-c2cc(-n3c(C(F)(F)F)nc4ccccc43)n(CCC#N)n2)cc1	inconclusive: 20.6 µM [cytotoxic, single point]	–
CN(C)c1nc(N/N=C/c2ccccc2O)nc(Nc2ccc(F)cc2)n1	inconclusive: 29.1 µM [cytotoxic, single point]	–
COc1ccc(CNC(=O)C(C)n2nc(C)c3c(C)n(-c4ccc(C)cc4)nc3c2=O)cc1 (stereo unspecified)	inconclusive: 16.4 µM [cytotoxic, single point]	–
Cc1cc(C)cc(OCCOCCn2c(-c3ccc(Cl)cc3)nc3ccccc3c2=O)c1	inactive	–
Cc1cnc(C(=O)OCc2cc(=O)n3c(C)cccc3n2)cn1	inactive	–
Cn1c(Cl)c(C(=O)Nc2ccc(Cl)cc2)c2ccccc21	active: 8.2 µM	–
COc1cccc(C(Nc2ccccc2)c2ccc3ccc(C)nc3c2O)c1 (stereo unspecified)	inconclusive: 5.8 µM [cytotoxic, full curve]	–
CCOc1ccc(-n2c(-c3ccc(OC)cc3)cc3c2CC(C)(C)CC3=O)cc1	inconclusive: 20.6 µM [cytotoxic, single point]	–
C=CC(=O)N=c1sc2ccccc2n1-c1ccccc1	active: 14.6 µM	–
Cc1cc(C)c(S(=O)(=O)c2ccccc2C)c(N(C)C)n1	inactive	–
CC(=O)c1ccc(NC(=O)c2ccc(CNc3c(N4CCOCC4)c(=O)c3=O)cc2)cc1	–	inconclusive: -68.5%
Cc1[nH]n(-c2ccccc2)c(=O)c1/C=N/NC(=O)c1cccc(F)c1	inconclusive: 7.31 µM [cytotoxic, partial curve]	–
COc1cccc(CN2C(=O)C3(SCC(=O)N3c3ccc(F)cc3)c3ccccc32)c1 (stereo unspecified)	inactive	–

2 compounds picked at random from the list so far, as already listed:
Structure (SMILES)	Potency	activity change, negative = cytotoxic
CCOc1ccc(-n2c(-c3ccc(OC)cc3)cc3c2CC(C)(C)CC3=O)cc1	inconclusive: 20.6 µM [cytotoxic, single point]	–
CCN(C(=O)c1cc(S(=O)(=O)N2CCCCC2)c[nH]1)c1ccc(OC)cc1	inactive	–
